At least one structure is not confirmed: it was looked up by name or label, or the drawing left a doubt.
Key:
HIV-1Ba-L (clade B) = test: p24 antigen estimation by ELISA (level of HIV infection in HA); format: cell-based; conditions: HIV-infected HA in presence of Coc (1 μM) vs only HIV-infected cells; p<0.006
Excerpt: Primary HA were purchased from ScienCell Research Laboratories (Carlsbad, Calif.; Cat. #1800-5) and grown in astrocyte medium purchased from ScienCell Laboratories (Cat. #1801) comprising 2% of fetal bovine serum (ScienCell Cat. #0010), astrocyte growth supplement (ScienCell Cat. #1852), and penicillin/streptomycin (ScienCell Cat. #0503). HIV-1Ba-L (clade B) (NIH AIDS Reagent Program Cat. #510) was obtained through AIDS Research and Reference Reagent Program, Division of AIDS, NIAID, NIH. The Cocaine hydrochloride-Sigma (Cat# C5776), rimcazole dihydrochloride-Tocris (1497, CAS#75859-03-9), and tenofovir disoproxil fumarate-Sigma (1643656; CAS #202138-50-9) were also obtained for this research.
Primary HA were grown in the eight-well CC plate at a concentration of approximately 8,000 cells and infected with different concentrations (ranging from 10 ng/mL to 30 ng/mL) of HIV-1 using a previously described protocol (Atluri et al. 2013; Eugenin and Berman 2007). Each well was used for a separate treatment. […]
450 μl of undiluted HA culture supernatant was mixed with 50 μL of lysing buffer. […] After incubation, 100 μL of stop solution was added to each well and the optical density of each well was read at 450 nm using a microplate reader (Yndart et al. 2015). […]

HIV = HIV patients, background statement; cited from earlier work

In the case of `COC(=O)[C@H]1[C@@H](OC(=O)c2ccccc2)C[C@@H]2CC[C@H]1N2C` [Coc, cocaine], the “level of HIV infection (p24 antigen)” value (HIV-1Ba-L (clade B)) is given as “significant increase” and the “speeds up cell-to-cell viral infection” value (HIV) is given as ≤ 200 times.
